Test results as given in PubChem BioAssay AID493014 (National Center for Advancing Translational Sciences (NCATS), 2011).
In all, about 340,000 compounds went through this assay and about 170 (0.05%) were called active. The inconclusive results got no clear call from the source; some entries with a clear call stand among them for comparison. Calls come from the whole dose curve; as a rule, active = well fitted inhibition curve with a large enough effect in the signal ratio, with a control signal flat (not every such curve was filed as active); inconclusive = small, poorly fitted or top-dose-only effect, or effect the other way, or a change in a side signal; inactive = flat fitted curve, though single readings scatter; the % refers to the signal ratio. A potency beside an inconclusive call is a rough fit, not a confirmed value.

assay: qHTS Assay to Find Inhibitors of Chronic Active B-Cell Receptor Signaling; settings: ABC-DLBCL IkBa-CBG/CBR reporter, luminescence ratio (green luciferase fused to IkBa over red control in TMD8 lymphoma cells), 4 h; activity change, negative = inhibition: at 46.1 µM (top of the series);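 for activity change, negative = inhibition: plate controls were basal doxycycline-induced cells for no effect and cells given 10 µM MG132 for full effect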
Outline: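 Doxycycline induced both beetle luciferases in TMD8 lymphoma cells; IKK-driven degradation limits the IkappaBalpha-fused green signal, while red luminescence normalises for cell number and nonspecific effects. Compounds tested up to 46 uM, 4 hrs.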
Potency is the fitted concentration of half-maximal effect.

Structure (SMILES)	activity change, negative = inhibition	Potency
CCn1c(-c2cc(-c3cc(C)ccc3C)nc3ccccc23)n[nH]c1=S	inactive	–
CN(C)S(=O)(=O)Oc1ccc(Cl)cc1C(=O)Nc1cccc(C(F)(F)F)c1	–	inconclusive: 11.2 µM [rising, partial curve, poor fit]
Cc1ccnc(NC(=S)NC(=O)c2cncc(Br)c2)c1	inconclusive: 6.53%	–
CCOc1ccc(C2=CS/C(=C(\C#N)c3nnc4n3CCCCC4)N2CC)cc1	inconclusive: -24.2%	–
COc1ccccc1-c1nnc(NC(=O)c2ccc(S(=O)(=O)N(C)C)cc2)o1	–	inconclusive: 29.1 µM [falling, single point]
Nc1ccc2nc(CCCO)[nH]c2c1	inconclusive: -15.9%	–
CCOC(=O)c1cnn(-c2nc3c(C)cccc3s2)c1C	–	inconclusive: 0.411 µM [rising, full curve, poor fit]
Nc1cc(OC(=O)c2cccs2)nn1S(=O)(=O)c1ccccc1	–	inconclusive: 18.4 µM [falling, partial curve]
Cc1ccc(N2C(=O)SC(N(CC(=O)O)c3ccc(C)cc3)C2=O)cc1 (stereo not given)	–	inconclusive: 12.6 µM [falling, partial curve, poor fit]
Cc1ccsc1C=Nc1ccc(O)cc1	inconclusive: -21.3%	–
Cc1ccn2c(NCc3ccccc3)c(-c3cccc(SC4CCCCC4)c3)nc2c1	inconclusive: 0.797%	–
O=C(CSc1ccccc1)NCc1ccc(F)cc1	inconclusive: -1.27%	–
COc1ccc(S(=O)(=O)CCC(=O)N(C)c2ccc(OC)cc2OC)cc1	inconclusive: 15.3%	–
COc1cc(OC)c(NC(=O)c2cc(S(=O)(=O)N3CCOCC3)cn2C)cc1Cl	inconclusive: -0.589%	–
CC(=O)c1ccc(OCc2cc(C(=O)NC3CCCCC3)no2)cc1	inconclusive: -9.2%	–
CCOC(=O)c1cccc(C(=O)Oc2ccccc2)n1	inactive	–
CCOc1ccccc1N	–	inconclusive: 25.9 µM [falling, partial curve, poor fit]
COc1ccccc1C(=O)n1nc(-c2ccccc2)nc1N	inconclusive: 23.6%	–
CC(C)Nc1c(N)c(=O)oc2ccccc12	–	inconclusive: 11.2 µM [falling, partial curve]
CC1CCN(C(=O)c2cc(-c3ccco3)on2)CC1	inconclusive: 7.71%	–
O=C(O)CCC(=O)Nc1ccc(F)cc1	inactive	–
Cc1ccc(CN(Cc2ccco2)C(=S)NCC(=O)NCc2cccnc2)cc1	–	inconclusive: 0.1 µM [falling, full curve, poor fit]
COc1cccc(-c2sc3ccc(OC)cc3c2C#CCCO)c1	inconclusive: 5.15%	–
Nc1cc(C(=O)OCC(=O)Nc2cccc(S(=O)(=O)N3CCOCC3)c2)ccc1Cl	–	inconclusive: 23.1 µM [falling, single point]
CCn1c(CNC(=O)Cc2ccc(OC)cc2)n[nH]c1=S	inactive	–

Structure (SMILES)	activity change, negative = inhibition	Potency
COc1ccc(-c2cc(C(=O)NCc3ccccc3)no2)cc1OC	–	inconclusive: 15.8 µM [falling, partial curve]
CCc1ccc(OC(=O)c2ccn(CC)n2)cc1	inconclusive: 5.21%	–
COc1ccccc1NC(=O)C(=O)N/N=C/c1ccc([N+](=O)[O-])s1	inactive	–
O=C(N1CCOCC1)N1CCN(C(=O)N(c2ccccc2)c2ccccc2)CC1	–	inconclusive: 3.26 µM [rising, partial curve, poor fit]
CCOc1ccccc1N1CCN(C(=O)c2ccc(Cl)c(S(=O)(=O)N3CCCCC3)c2)CC1	inconclusive: 8.19%	–
COc1cc(C(CCN2CCCC(C)C2)c2c(OC)cc(OC)c3c2OC(=O)CC3c2ccc(N(C)C)cc2)cc(OC)c1OC (stereo not given)	inactive	–
c1cn(C23CC4CC(CC(C4)C2)C3)cn1	inconclusive: 4.43%	–
C=CCOc1c(Cl)cc(/C=N/O)cc1OC	inconclusive: -3%	–
Cc1nc([N+](=O)[O-])cn1-c1ccc(N)cc1	inconclusive: -1.8%	–
Cc1ccc2ccc3ccc(C)nc3c2n1	–	inconclusive: 35.5 µM [falling, single point]
Cc1ccc(C(=O)NCCSc2ccc(Cl)cc2)cc1[N+](=O)[O-]	inconclusive: 18.2%	–
Cc1cccc(NC(=O)C(C)N2C(=O)C3C4CC(C(Br)C4Br)C3C2=O)c1 (stereo not given)	inconclusive: 6.33%	–
CCOc1cc(C=C(C(=O)OC)C(=O)OC)ccc1OCc1ccc([N+](=O)[O-])cc1	inconclusive: -23.1%	–
CCCCOc1ccc(C(O)C(CN2CCCCC2)c2ccccc2)cc1 (stereo not given)	–	inconclusive: 15.8 µM [falling, partial curve, poor fit]
Cc1csc(NC(=O)CCC(=O)N(CC(=O)NC2CCCCC2)c2ccccc2)n1	inconclusive: -0.34%	–
CC[C@]12c3[nH]c4ccc(Cl)cc4c3CCN1C(=O)[C@@H](CC(=O)NCc1cccc(C(F)(F)F)c1)C[C@@H]2C(=O)N1CCN(C(=O)c2ccco2)CC1	inconclusive: 2.8%	–
CCC(CC)C(=O)N(CCc1ccc(OC)cc1)Cc1nc2ccccc2c(=O)[nH]1	inactive	–
CN1C(=O)NC(c2cccc([N+](=O)[O-])c2)C2=C1CCCC2=O (stereo not given)	inconclusive: -1.13%	–
O=C(Nc1nc2ccccc2[nH]1)C12CC3CC(CC(C3)C1)C2	inconclusive: 14.1%	–
Cc1cc(Cl)cc2sc(NC(=O)c3ccco3)nc12	–	inconclusive: 15.8 µM [falling, single point]
C=C(C)C(C)(C#CCN1CCCC1)OC(C)=O (stereo not given)	inconclusive: -0.44%	–
CCC1CCCCN1S(=O)(=O)c1ccc(NC(=O)c2nc(S(C)(=O)=O)ncc2Cl)cc1 (stereo not given)	–	inconclusive: 11.2 µM [rising, partial curve, poor fit]
CCCCC#Cc1ccc(C(=O)NNC(=O)Nc2cc(Cl)cc(Cl)c2)o1	–	inconclusive: 11.2 µM [falling, partial curve, poor fit]
NC(=S)NN=C(Cc1ccccc1)Cc1ccccc1	–	inconclusive: 28.2 µM [cytotoxic, single point]
COc1ccc(C(=O)Nc2ccc(C(F)(F)F)n(C)c2=O)cc1	–	inconclusive: 0.082 µM [rising, full curve]

Taken from above.
activity change, negative = inhibition, `Cc1nc([N+](=O)[O-])cn1-c1ccc(N)cc1` is entered as inconclusive: -1.8%
activity change, negative = inhibition, `Cc1ccc(C(=O)NCCSc2ccc(Cl)cc2)cc1[N+](=O)[O-]` is entered as inconclusive: 18.2%
